Data taken from patent publication US20070191324A1, “Methods for treatment or prophylaxis of aldosterone-mediated pathogenic effects in a subject using an epoxy-steroidal aldosterone antagonist” (priority 1999, published 2007).
At least one compound was matched to its structure with a doubt left.

What was measured:
hypertensive patients = test: Eplerenone vs. amlodipine, ambulatory blood pressure monitoring, 16 weeks (Example D-12); format: in vivo, human; settings: eplerenone 50-200 mg, amlodipine 2.5-10 mg
Source text: This was a multicenter, randomized, double-blind, active-controlled, placebo run-in, parallel group study. […] If symptomatic hypotension occurred at Week 2 or Weeks 4, 6, 8, or 12 and the patient was on the lowest dose level (Dose Level 1), the patient was to be withdrawn. Study assessments at protocol-specified timepoints included BP, heart rate, ABPM, Holter recording, clinical laboratory analyses including serum potassium levels, concomitant medications. Throughout the study, safety was assessed by routine clinical laboratory analyses, vital signs, physical examinations, 12-lead ECG, and monitoring of adverse events.

[1] = test system: older patients with systolic hypertension and/or widened pulse pressure; test: Eplerenone versus amlodipine in systolic hypertension in older people, 24 weeks (Examples A-19, D-8); format: in vivo, human
Source text: At Week 10 or thereafter, if SBP is =170 mmHg on two consecutive visits, one to three days apart, and the patient is on the maximum dose of study drug, he/she must be withdrawn. Patients will receive double-blind study medication for a total of 24 weeks. Table A-19A illustrates the above-described dosing scheme.
Heart rate, BP, serum potassium levels, concomitant medications and adverse events will be assessed at each visit. […] Special studies: collagen markers [aminoterminal propeptide of type III procollagen (PIIINP), 7S domain of type IV collagen (7SIVC), and type I collagen telopeptide (ICTP)], plasma […] (PAI-1), tissue plasminogen activator (t-PA), microalbuminuria, and at selected sites, Ambulatory Blood Pressure Monitoring (ABPM) and arterial compliance will be done at Weeks 0, 14, and 24 or at Final Visit. Quality of Life Questionnaires will be done at visit 2A (beginning of single blind) and Weeks 0, 14, and 24 or at Final Visit. DNA genotyping will be performed at baseline.
In older patients, elevated systolic BP and wide pulse pressure predict cardiovascular risk better than diastolic BP. […]
Changes in arterial compliance, measured by pulse-wave velocity, microalbuminuria, and adverse effects (AEs) were assessed at baseline and after 24 weeks of therapy.

CCOC(=O)C1=C(COCCN)NC(C)=C(C(=O)OC)C1c1ccccc1Cl (stereo not drawn) [Amlodipine]
anti-hypertensive effect, mean 24 hour diastolic ABPM (hypertensive patients): greater than that of eplerenone | anti-hypertensive effect, mean 24 hour systolic ABPM (hypertensive patients): comparable | lowering DBP [1]: greater effect than eplerenone in lowering DBP
